Publication PMC9616806

The chains behind the UniProt entries cited, without tags or fusion partners.
UniProt E9Q6J5: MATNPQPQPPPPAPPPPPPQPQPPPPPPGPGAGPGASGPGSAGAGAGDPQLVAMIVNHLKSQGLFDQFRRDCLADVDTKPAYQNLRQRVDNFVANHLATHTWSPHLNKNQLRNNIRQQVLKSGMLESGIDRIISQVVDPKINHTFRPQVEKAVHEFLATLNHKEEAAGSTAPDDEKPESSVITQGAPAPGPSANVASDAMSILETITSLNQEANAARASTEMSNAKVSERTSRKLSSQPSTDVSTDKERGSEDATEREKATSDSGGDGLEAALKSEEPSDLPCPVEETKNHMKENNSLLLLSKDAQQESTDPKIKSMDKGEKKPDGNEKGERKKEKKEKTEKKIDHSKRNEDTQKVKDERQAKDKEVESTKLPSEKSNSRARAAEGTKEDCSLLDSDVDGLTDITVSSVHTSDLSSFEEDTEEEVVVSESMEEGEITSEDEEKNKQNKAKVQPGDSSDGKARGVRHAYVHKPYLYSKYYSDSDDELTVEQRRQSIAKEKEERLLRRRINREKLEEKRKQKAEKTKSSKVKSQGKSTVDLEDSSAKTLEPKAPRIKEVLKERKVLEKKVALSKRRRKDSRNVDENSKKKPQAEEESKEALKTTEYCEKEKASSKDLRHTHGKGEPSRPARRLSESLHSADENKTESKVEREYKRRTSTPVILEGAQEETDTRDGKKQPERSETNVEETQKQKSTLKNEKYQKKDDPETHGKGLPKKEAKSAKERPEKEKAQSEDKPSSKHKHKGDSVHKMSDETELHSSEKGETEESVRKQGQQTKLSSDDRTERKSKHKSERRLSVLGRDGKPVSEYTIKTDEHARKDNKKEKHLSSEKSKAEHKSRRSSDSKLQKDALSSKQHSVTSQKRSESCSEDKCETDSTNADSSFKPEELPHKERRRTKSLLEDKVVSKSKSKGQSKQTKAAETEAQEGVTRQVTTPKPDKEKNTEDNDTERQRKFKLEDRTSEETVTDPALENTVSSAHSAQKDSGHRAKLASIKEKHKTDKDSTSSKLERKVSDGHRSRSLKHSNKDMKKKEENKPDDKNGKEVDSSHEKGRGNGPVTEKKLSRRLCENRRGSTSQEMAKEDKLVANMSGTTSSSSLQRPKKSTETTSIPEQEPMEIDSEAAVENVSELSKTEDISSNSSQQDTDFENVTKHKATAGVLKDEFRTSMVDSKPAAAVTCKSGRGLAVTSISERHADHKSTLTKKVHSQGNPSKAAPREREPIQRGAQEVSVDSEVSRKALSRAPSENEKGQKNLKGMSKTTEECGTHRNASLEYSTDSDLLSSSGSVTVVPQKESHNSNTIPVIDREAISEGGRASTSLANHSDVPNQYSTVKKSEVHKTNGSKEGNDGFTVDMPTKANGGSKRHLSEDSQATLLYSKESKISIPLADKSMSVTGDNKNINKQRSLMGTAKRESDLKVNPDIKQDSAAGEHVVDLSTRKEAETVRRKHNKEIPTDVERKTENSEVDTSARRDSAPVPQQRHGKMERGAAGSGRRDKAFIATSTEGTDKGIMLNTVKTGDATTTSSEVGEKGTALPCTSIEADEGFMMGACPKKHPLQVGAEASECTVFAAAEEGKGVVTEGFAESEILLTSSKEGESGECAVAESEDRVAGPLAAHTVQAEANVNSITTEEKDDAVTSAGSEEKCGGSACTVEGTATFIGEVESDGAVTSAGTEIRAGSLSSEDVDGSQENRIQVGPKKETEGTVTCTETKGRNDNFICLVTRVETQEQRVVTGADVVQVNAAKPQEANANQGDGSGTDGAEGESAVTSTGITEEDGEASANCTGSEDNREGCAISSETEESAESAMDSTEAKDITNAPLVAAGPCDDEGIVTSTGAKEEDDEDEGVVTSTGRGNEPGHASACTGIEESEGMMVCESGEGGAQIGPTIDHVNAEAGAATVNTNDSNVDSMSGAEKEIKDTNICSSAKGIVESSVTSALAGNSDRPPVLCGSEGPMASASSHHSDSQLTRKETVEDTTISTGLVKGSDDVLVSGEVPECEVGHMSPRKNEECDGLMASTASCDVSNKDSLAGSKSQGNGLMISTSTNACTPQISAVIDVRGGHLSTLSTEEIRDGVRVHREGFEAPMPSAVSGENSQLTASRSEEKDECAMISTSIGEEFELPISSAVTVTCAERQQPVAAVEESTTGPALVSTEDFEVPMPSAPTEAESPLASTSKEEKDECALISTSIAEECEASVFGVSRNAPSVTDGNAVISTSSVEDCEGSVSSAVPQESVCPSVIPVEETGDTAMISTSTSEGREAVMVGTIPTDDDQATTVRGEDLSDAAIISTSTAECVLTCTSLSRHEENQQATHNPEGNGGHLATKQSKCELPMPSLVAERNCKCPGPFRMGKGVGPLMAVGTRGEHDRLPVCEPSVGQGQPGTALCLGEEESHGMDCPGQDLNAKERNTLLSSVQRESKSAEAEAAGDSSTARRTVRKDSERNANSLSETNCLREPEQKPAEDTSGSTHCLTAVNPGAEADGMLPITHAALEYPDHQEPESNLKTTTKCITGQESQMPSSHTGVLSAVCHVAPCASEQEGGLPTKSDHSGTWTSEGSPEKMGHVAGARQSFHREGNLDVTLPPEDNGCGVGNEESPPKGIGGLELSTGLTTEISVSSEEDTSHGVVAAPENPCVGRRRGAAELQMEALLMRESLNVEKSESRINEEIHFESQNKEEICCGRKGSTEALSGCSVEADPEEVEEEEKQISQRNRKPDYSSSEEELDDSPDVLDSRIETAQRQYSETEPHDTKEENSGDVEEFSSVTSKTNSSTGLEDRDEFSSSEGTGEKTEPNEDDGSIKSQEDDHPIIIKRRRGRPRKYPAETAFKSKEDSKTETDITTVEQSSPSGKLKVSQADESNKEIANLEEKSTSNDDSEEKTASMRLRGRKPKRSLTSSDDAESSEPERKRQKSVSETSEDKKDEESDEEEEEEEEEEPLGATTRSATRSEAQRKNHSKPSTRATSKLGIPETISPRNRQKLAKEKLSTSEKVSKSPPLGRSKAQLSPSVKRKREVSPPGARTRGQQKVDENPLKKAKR
UniProt Q9UBL3: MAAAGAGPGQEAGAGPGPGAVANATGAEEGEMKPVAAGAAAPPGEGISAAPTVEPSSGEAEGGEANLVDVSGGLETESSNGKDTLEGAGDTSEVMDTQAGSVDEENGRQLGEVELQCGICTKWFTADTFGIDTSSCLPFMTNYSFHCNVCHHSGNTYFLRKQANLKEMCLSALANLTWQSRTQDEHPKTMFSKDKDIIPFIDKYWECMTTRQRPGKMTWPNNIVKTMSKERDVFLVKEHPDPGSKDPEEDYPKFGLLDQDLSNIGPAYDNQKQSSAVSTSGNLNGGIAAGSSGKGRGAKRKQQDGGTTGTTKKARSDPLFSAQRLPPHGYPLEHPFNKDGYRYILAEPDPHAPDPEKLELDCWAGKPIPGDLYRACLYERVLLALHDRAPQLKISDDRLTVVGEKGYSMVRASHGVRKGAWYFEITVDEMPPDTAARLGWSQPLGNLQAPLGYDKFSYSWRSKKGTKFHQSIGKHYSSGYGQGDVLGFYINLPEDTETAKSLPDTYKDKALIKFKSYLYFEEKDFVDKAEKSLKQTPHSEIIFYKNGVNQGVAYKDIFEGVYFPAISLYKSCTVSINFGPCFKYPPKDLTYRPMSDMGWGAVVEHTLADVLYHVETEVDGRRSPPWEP
UniProt Q9P0U4: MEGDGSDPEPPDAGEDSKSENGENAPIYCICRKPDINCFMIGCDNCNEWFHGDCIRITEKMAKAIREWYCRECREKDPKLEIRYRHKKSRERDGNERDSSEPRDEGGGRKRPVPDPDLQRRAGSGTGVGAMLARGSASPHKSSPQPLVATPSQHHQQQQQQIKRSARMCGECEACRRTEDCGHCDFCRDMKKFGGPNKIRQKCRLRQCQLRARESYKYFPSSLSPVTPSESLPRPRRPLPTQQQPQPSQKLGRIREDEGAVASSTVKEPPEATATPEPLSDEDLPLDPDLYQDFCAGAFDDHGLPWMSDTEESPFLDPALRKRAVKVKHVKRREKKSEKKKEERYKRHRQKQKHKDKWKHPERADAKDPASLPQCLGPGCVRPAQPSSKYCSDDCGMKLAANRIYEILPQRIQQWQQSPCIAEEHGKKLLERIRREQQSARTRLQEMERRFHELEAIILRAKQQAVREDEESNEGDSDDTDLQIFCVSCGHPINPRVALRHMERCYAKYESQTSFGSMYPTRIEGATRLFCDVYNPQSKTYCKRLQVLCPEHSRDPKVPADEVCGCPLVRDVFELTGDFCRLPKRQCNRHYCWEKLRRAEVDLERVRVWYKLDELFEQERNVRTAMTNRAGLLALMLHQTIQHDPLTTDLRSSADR
UniProt Q15291: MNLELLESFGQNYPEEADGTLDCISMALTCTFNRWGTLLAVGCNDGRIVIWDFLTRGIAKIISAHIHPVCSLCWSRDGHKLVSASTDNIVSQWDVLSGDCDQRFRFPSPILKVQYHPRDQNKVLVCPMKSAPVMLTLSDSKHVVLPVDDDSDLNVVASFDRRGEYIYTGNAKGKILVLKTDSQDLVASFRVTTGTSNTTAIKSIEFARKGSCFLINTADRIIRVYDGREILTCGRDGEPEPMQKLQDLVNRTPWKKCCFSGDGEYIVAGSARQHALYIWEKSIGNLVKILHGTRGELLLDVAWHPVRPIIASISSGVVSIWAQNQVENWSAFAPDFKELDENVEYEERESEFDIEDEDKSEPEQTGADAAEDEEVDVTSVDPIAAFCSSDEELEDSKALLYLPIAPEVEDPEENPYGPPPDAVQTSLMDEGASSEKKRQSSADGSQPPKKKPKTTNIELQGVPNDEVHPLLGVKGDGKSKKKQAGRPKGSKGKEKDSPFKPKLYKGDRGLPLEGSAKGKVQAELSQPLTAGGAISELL
UniProt O15047: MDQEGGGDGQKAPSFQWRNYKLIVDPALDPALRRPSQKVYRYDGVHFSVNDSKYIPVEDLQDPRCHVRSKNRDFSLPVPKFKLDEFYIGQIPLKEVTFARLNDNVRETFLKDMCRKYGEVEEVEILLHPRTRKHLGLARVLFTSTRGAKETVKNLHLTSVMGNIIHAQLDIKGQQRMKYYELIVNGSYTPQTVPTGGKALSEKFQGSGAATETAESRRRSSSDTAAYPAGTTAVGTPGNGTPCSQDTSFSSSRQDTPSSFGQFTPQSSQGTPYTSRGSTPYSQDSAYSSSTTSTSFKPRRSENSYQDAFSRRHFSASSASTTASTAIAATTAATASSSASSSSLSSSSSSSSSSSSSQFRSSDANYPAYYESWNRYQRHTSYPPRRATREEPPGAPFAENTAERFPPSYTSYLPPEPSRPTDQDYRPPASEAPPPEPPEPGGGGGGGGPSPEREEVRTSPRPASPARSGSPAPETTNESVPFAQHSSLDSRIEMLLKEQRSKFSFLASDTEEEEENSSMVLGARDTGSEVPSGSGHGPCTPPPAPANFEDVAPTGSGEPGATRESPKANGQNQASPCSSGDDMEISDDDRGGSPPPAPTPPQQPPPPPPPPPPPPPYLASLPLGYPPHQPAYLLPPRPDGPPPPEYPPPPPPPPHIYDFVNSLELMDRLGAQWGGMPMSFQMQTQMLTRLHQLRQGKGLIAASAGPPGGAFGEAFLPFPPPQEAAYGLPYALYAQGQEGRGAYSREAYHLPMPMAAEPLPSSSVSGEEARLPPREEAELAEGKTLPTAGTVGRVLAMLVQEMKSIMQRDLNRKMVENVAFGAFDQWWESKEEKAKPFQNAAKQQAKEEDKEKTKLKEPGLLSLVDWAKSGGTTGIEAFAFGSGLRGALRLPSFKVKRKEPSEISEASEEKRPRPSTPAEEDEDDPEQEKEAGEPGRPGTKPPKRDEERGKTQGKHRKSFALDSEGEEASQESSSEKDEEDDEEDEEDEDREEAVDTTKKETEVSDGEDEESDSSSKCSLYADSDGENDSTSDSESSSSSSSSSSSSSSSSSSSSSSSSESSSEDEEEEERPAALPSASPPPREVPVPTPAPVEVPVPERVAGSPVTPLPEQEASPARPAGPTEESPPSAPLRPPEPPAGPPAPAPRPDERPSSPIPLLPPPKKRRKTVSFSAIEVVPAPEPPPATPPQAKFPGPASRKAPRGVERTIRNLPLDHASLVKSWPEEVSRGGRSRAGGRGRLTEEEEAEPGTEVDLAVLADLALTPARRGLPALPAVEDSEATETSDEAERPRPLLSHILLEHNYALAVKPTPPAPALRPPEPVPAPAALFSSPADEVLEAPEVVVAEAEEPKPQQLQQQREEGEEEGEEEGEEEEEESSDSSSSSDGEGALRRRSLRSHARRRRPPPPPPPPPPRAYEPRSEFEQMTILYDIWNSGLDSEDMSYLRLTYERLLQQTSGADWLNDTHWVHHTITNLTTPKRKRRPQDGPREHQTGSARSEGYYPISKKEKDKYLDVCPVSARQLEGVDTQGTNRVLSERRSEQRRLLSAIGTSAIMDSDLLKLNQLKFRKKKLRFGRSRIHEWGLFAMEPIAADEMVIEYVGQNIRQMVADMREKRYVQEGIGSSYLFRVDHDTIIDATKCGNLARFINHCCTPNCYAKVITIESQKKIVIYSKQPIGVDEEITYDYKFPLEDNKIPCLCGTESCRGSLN

The substances below were run against murine BOD1L-GFP (mouse) (UniProt E9Q6J5) (assay: affinity purification with mass spectrometry; lysates of HeLa-C-Flap-BOD1L cells (control HeLa-C-Flap) in benzonase lysis buffer, anti-Flag affinity agarose 4 h at 4 C, washes with 300 mM NaCl, 1% CHAPS; gel slices, trypsin, Orbitrap).

Substance | binding
ASH2L (from UniProt Q9UBL3 1-628) | binds
CXXC1 (from UniProt Q9P0U4 1-656) | binds
RBBP5 (from UniProt Q15291 1-538) | binds

Second part, the substance after the results:

binding | Substance
binds | RIF1 (from UniProt Q5UIP0 1-2472)
binds | SETD1A (from UniProt O15047 1-1707)

These are yes or no findings as the source states them, for the method shown. In cells and extracts the contact can be indirect. A yes stands for co-enrichment or nearness to the bait. Other partners may have been found.
